Test results reported in PubChem BioAssay AID493014 (National Center for Advancing Translational Sciences (NCATS), 2011).
The whole screen tested about 340,000 compounds, of which about 170 (0.05%) were called active. The inconclusive results got no clear call from the source; some entries with a clear call stand among them for comparison. Calls come from the whole dose curve; as a rule, active = well fitted inhibition curve with a large enough effect in the signal ratio, with a control signal flat (not every such curve was filed as active); inconclusive = small, poorly fitted or top-dose-only effect, or effect the other way, or a change in a side signal; inactive = flat fitted curve, though single readings scatter; the % refers to the signal ratio. A potency beside an inconclusive call is a rough fit, not a confirmed value.

test: qHTS Assay to Find Inhibitors of Chronic Active B-Cell Receptor Signaling; details: ABC-DLBCL IkBa-CBG/CBR reporter, luminescence ratio (green luciferase fused to IkBa over red control in TMD8 lymphoma cells), 4 h; activity change, negative = inhibition: at 46.1 µM (top of the series);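 for activity change, negative = inhibition: plate controls were basal doxycycline-induced cells for no effect and cells given 10 µM MG132 for full effect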
In short: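 TMD8 human ABC-DLBCL cells with doxycycline-inducible IκBα–green luciferase fusion and unfused red luciferase, in 0.5% FBS medium; compounds up to 46 uM, 4 h at 37C. Green/red luminescence ratio, filter-overlap corrected, fitted to concentration-response curves.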
Potency is the fitted concentration of half-maximal effect.

SMILES | activity change, negative = inhibition | Potency
Cc1cccc(/C(N)=N/OC(=O)COc2ccccc2Cl)c1 | inconclusive: 0.366% | –
C(=N\N=C\c1ccccn1)/c1ccccn1 | inconclusive: 8.56% | –
Cc1ccc(C)c(-c2nnc(NC(=O)COc3ccccc3)o2)c1 | inactive: 5.7% | –
Cn1c(C(C#N)C(=O)Cc2cccc3ccccc23)nc2ccccc21 (stereo not drawn) | inconclusive: -8.56% | –
COCCCN=C1NN=C(c2cc(C)n(Cc3ccccc3Cl)c2C)CS1 | inconclusive: -4.26% | –
Cc1cc(O)ccc1N=Cc1c(C(F)(F)F)[nH][nH]c1=O | – | inconclusive: 25.1 µM [falling, single point]
Cc1cc(C)n(-c2c(C)[nH]c3ccccc23)n1 | inconclusive: -3.41% | –
COc1ccccc1NC(=O)c1cccc2c(Br)cccc12 | inconclusive: 0.847% | –
CCOC(=O)c1sc(NC(=S)NC(=O)c2ccccc2Cl)c(C(=O)OCC)c1C | inconclusive: -1.14% | –
CCCc1nc2ccccc2c(C(=O)OCc2nnc(-c3cc(OC)c(OC)c(OC)c3)o2)c1CC | inconclusive: -6.17% | –
O=C(Nc1ccccc1)Nc1ccc(-n2ccc(C(F)(F)F)n2)cc1 | inconclusive: 6.7% | –
c1ccc(-c2csc(-c3cccnc3)n2)cc1 | inconclusive: 8.47% | –
O=[N+]([O-])c1cccc(S(=O)(=O)Nc2nc3ccccc3nc2Nc2cccc(S(=O)(=O)N3CCCCC3)c2)c1 | inactive: 14.8% | –
O=C(Nc1cccc(OC(=O)c2cccnc2)c1)c1cccnc1 | – | inconclusive: 8.91 µM [falling, partial curve, poor fit]
COc1cc(C(C[N+](=O)[O-])c2c(C)[nH]c3ccccc23)cc(OC)c1OC (stereo not drawn) | inconclusive: -7.54% | –
Fc1ccc(-n2nnc(-c3cccnc3)n2)cc1 | – | inconclusive: 35.5 µM [falling, single point]
Cc1cccc2nc(CSc3nc4ccccc4o3)cn12 | – | inconclusive: 16.4 µM [falling, partial curve, poor fit]
CCCCOCCCNC(=O)c1ccc(OC)cc1 | inconclusive: 6.47% | –
CCN(CC)c1ccc(NS(=O)(=O)c2cn(C)c(=O)n(C)c2=O)c(C)c1 | inconclusive: 5.15% | –
Cc1ccc(-c2noc(CN(C(=O)c3cccc(Br)c3)C(C)C)n2)cc1 | inactive: 2.4% | –
Cc1cc(C)n2nc(-c3ccccc3)c(-c3ccccc3)c2n1 | inactive: -2.22% | –
CCOc1ccc2[nH]cc(C(=O)NCc3ccccc3)c(=O)c2c1 | inconclusive: -18% | –
COc1ccc(C(=O)/C(=C\c2ccco2)N2C=CC=CC2=C(C#N)C#N)cc1 | inconclusive: 28.8% | –
COc1ccccc1CNC(=O)[C@@H](NC(=O)C1CCN(C(=O)[C@@H]2CCCN2)CC1)C(C)C | inactive: 7.74% | –
O=C(CNC(c1ccccc1)c1ccccc1)Nc1ccccc1-c1ccccc1 | inconclusive: 11.6% | –
CCCOC(=O)C1[C@H]2C(=O)N(C(C)c3ccc(OC)cc3)C[C@]23C=C[C@H]1O3 (stereo partly drawn) | inactive: 0.886% | –
O=C(O/N=C/c1ccc(Cl)cc1)C1CCCCC1 | inconclusive: 5.59% | –

Given tab-delimited: entries from further up.
SMILES	activity change, negative = inhibition	Potency
Fc1ccc(-n2nnc(-c3cccnc3)n2)cc1	–	inconclusive: 35.5 µM [falling, single point]
O=C(O/N=C/c1ccc(Cl)cc1)C1CCCCC1	inconclusive: 5.59%	–

Next part

SMILES | activity change, negative = inhibition | Potency
O=C(c1ccco1)N1CCN(C(=O)c2ccc(-c3cccc(C(F)(F)F)c3)o2)CC1 | inactive: -1.94% | –
COc1ccccc1NC(=O)Nc1ccc2[nH]c(=O)[nH]c2c1 | inconclusive: -16.2% | –
CCN(CC)c1ccc(/C=N/NC(=S)NC)c(O)c1 | – | inconclusive: 0.794 µM [falling, full curve, poor fit]
COc1ccc(NC(=S)NC(=O)/C=C/c2ccco2)cc1 | – | inconclusive: 3.55 µM [falling, partial curve]
COc1cccc(C2C(C(=O)c3cccs3)=C(O)C(=O)N2CCN2CCOCC2)c1OC (stereo not drawn) | inconclusive: 2.01% | –
CCOc1ccc(Br)cc1S(=O)(=O)NC(=O)c1ccccc1 | inconclusive: 4.77% | –
CC(C)OC(=O)CSc1nnc(-c2ccc(Cl)cc2Cl)n1N | inconclusive: -28.8% | –
O=C(CSc1nc2ccc(Cl)cc2[nH]1)c1c[nH]c2ccccc12 | inconclusive: 1.82% | –
CC(C)c1ccc(-c2noc(C3CCCN(S(C)(=O)=O)C3)n2)cc1 (stereo not drawn) | inconclusive: 1% | –
Cc1cccc(C(=O)NNS(=O)(=O)c2ccccc2[N+](=O)[O-])c1 | – | inconclusive: 14.6 µM [falling, partial curve, poor fit]
C/C=C/COC(=O)c1[nH]c2c(c1C)C(=O)CC(c1ccco1)C2 (stereo not drawn) | inconclusive: -0.834% | –
O=C(CN(CCc1ccccc1)C(=O)CNS(=O)(=O)c1ccc(F)cc1)NCC1CCCO1 (stereo not drawn) | – | inconclusive: 18.4 µM [falling, single point]
CCCc1cc(=O)n2[nH]c(SCc3ccccc3)nc2n1 | – | inconclusive: 18.4 µM [falling, partial curve]
Cc1ccc(C)c(N2CCN(C(=O)c3ccc4nsnc4c3)CC2)c1 | inactive: -3.35% | –
O=S(=O)(NCCOc1ccccc1F)c1cccc(Br)c1 | inactive: 5.12% | –
Cc1ccc(-n2cnc3cc(C(=O)NC4CCCCCC4)ccc32)c(C)c1 | inconclusive: 7.07% | –
O=C(NNC(=S)Nc1cccc(Cl)c1)c1ccccc1 | – | inconclusive: 5.01 µM [falling, single point]
CCCCCc1ccc(-c2ccc(=O)[nH]n2)cc1 | inconclusive: -3.92% | –
CCOC(=O)c1c(NC(=S)Nc2ccc(F)cc2)sc2c1CCC2 | inconclusive: 8.59% | –
N#CCCn1nc(-c2ccc([N+](=O)[O-])cc2)cc1Nc1ccccc1NC(=O)C(F)(F)F | inconclusive: 3.83% | –
O=C(Nc1nccs1)c1ccc(S(=O)(=O)NCC2CCCCC2)cc1 | inconclusive: 2.09% | –
CCOC(=S)NC(=O)c1sc2ccccc2c1Cl | – | inconclusive: 12.6 µM [falling, partial curve]
O=C(CN1C(=O)NC2(CCCCC2)C1=O)Nc1ccc2c(c1)OCCCO2 | inactive: -2.02% | –
O=C(CSc1nc(-c2ccc(F)cc2)cs1)N1CCN(C(=O)c2ccco2)CC1 | inconclusive: 2.01% | –
CCCCn1c(SCC(=O)Nc2cccc(OC)c2)nc2ccc(N3CCOCC3)cc2c1=O | inconclusive: 9.7% | –
COc1cccc(CNC(=O)C2CCN(S(=O)(=O)c3ccc(Br)s3)CC2)c1 | inactive: 9.72% | –
